Laboratory results as given in patent US20260306428A1 (The Trustees of Indiana University, priority 2023, published 2026).

Experiments:
[1] = treated minipigs
[2] = system: surgically induced joint instability; details: mouse and non-human primate; cited from earlier work

## CN(C)C(=N)NC(=N)N.Cl [metformin, 1,1-dimethylbiguanide hydrochloride]
[1]
  changes in blood serum markers related to hypoglycemia and renal and hepatic toxicity: not expected
[2]
  prevention or delay of onset of OA: effective at preventing or delaying the onset of OA
